In the assay the target is Myosin IIA (mouse (endogenous in bEnd.3)) (UniProt Q8VDD5). Put plainly: co-IP; endogenous proteins; bEnd.3 brain ECs grown to a confluent monolayer, lysed, co-immunoprecipitation; which protein was precipitated is not told.

Amino acid sequences for entries named in this document (tags omitted).
UniProt Q8VDD5: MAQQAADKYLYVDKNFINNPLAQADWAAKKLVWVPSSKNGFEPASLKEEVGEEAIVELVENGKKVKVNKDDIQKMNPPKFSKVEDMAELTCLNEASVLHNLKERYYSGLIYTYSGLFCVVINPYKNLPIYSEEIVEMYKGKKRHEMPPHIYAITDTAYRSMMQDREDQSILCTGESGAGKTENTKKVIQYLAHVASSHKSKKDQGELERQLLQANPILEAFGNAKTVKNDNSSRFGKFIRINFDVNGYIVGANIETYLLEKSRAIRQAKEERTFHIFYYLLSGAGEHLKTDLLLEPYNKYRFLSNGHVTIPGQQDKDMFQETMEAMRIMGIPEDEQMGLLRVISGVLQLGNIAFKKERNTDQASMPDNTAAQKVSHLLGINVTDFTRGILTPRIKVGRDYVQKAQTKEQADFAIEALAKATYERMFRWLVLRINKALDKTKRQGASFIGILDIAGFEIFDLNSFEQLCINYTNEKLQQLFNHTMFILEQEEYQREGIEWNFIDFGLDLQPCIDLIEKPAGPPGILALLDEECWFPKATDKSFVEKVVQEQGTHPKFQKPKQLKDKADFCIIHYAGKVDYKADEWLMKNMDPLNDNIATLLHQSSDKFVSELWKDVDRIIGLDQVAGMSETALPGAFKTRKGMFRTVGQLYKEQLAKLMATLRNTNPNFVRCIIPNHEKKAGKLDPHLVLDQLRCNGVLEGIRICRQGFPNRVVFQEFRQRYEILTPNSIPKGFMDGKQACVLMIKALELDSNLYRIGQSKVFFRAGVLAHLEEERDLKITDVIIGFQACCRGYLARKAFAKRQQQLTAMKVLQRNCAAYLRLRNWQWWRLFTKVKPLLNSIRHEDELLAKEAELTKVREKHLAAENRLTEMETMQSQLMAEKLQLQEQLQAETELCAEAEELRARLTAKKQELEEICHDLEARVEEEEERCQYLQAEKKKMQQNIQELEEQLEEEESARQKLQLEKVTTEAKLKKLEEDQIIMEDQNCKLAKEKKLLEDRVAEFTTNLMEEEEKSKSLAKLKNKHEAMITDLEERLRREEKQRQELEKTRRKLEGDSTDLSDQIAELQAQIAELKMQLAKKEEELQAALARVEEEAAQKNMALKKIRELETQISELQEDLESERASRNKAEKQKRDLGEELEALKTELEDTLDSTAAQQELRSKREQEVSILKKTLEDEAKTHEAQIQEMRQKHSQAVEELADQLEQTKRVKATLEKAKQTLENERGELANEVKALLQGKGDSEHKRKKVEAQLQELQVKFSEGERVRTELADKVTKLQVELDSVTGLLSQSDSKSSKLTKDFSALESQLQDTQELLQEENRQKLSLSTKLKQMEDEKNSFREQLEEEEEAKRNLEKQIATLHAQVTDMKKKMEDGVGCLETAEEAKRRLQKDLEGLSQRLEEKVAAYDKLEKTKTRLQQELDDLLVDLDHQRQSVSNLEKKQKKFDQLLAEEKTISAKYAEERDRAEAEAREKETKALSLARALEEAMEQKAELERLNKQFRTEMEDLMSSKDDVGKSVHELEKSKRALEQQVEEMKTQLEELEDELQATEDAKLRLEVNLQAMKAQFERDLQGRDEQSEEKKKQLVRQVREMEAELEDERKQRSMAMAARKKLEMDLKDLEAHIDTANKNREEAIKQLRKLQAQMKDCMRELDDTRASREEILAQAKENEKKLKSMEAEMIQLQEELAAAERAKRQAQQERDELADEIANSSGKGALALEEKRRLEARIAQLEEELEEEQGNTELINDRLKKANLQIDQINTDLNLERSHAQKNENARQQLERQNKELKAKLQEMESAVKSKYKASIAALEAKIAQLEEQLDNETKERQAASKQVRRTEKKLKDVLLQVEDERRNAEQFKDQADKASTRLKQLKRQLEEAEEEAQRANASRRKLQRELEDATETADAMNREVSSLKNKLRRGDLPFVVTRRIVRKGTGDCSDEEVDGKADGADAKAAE
UniProt Q02248: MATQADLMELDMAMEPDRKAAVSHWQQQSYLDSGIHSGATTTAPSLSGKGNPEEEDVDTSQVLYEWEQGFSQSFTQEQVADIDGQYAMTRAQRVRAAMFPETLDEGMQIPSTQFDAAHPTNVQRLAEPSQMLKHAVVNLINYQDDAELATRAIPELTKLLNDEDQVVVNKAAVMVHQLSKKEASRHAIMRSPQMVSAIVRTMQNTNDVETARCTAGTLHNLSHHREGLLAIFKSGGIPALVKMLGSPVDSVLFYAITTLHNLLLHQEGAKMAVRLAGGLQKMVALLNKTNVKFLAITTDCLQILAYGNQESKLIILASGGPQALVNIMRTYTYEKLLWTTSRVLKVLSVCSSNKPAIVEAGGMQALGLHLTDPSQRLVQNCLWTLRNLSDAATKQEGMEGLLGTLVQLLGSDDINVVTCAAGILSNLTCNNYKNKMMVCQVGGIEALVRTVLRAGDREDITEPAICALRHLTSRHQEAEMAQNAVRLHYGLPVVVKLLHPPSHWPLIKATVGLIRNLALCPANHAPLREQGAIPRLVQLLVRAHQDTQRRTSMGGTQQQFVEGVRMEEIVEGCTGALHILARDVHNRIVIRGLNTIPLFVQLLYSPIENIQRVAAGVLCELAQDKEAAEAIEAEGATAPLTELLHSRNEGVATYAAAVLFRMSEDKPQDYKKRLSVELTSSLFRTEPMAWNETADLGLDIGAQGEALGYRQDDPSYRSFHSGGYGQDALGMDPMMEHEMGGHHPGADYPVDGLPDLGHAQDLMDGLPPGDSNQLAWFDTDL

No constants are given. Whether binding was seen depends on the method and setting. Binding seen in cells or lysates may run through a third protein. Some results given as binding are weak or reduced against the parent protein; the word gives no strength.

As for β-catenin (from UniProt Q02248 1-781), the binding entry is given as “binds”.
